Results reported in the supplement of paper PMC10849652.
The other results are listed elsewhere or left out.

Sequences of proteins named here, by UniProt entry; tags and fusion partners are left off. A change or cut given only in a name is not applied to a line headed by its entry.
UniProt A1A5C7: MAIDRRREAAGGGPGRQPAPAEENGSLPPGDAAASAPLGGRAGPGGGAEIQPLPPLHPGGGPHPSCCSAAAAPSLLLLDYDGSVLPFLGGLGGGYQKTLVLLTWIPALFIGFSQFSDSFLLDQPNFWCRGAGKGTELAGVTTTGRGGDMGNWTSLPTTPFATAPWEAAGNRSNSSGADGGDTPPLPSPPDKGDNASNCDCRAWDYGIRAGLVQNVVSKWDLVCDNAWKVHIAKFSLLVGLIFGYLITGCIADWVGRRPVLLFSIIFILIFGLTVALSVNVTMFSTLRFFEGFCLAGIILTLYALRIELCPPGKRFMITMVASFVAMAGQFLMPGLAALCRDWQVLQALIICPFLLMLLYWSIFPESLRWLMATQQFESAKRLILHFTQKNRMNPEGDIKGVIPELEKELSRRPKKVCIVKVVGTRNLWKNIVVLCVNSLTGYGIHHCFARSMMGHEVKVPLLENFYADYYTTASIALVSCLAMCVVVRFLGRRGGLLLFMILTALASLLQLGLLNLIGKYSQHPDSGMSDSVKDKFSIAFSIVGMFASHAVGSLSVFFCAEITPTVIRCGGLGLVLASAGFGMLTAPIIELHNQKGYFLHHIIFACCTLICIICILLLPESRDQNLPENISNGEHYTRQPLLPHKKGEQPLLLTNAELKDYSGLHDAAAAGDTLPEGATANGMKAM
UniProt Q9NRA2: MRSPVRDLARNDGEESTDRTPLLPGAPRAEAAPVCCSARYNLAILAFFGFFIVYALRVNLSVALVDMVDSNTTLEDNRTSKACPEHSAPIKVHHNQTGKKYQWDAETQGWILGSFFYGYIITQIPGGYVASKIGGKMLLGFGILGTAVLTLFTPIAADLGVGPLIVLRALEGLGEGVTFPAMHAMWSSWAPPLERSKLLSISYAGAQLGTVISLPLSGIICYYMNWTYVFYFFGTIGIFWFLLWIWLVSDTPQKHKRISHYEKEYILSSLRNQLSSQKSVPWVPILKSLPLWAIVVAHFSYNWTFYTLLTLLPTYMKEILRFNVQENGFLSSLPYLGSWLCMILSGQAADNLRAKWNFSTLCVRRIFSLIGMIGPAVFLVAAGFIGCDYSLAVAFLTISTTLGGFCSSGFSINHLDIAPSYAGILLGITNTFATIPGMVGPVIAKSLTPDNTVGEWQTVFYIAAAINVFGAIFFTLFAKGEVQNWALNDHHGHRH
UniProt Q8N8R3: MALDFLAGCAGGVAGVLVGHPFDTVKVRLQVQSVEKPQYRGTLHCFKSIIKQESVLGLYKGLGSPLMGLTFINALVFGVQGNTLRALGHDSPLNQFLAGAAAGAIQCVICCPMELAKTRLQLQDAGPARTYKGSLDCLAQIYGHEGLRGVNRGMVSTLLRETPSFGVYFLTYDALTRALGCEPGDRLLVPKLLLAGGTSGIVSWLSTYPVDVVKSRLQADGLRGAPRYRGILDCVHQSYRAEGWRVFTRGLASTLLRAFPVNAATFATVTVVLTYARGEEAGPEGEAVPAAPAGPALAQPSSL
UniProt Q3KQZ1: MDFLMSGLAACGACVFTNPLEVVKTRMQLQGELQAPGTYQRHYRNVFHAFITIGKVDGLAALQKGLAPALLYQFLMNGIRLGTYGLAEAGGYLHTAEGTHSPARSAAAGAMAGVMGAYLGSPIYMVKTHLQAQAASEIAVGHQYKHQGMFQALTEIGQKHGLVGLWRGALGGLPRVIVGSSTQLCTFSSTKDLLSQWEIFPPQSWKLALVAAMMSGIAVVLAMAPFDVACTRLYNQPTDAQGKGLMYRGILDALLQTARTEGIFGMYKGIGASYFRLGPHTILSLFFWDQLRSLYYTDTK
UniProt Q8IVJ1: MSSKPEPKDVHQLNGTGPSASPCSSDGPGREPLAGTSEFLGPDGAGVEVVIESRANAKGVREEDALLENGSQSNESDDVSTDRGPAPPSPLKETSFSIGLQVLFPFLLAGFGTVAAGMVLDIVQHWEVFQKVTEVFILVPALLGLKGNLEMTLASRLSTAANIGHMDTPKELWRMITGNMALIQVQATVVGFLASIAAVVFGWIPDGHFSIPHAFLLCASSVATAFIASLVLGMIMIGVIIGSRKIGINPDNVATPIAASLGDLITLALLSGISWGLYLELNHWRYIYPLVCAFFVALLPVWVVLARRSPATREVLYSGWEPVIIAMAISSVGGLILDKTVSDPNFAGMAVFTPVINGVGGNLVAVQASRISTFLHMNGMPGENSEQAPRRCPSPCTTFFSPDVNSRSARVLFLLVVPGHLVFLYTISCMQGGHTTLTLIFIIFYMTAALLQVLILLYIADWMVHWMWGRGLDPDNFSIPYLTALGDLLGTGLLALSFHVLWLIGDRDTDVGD
UniProt Q8WV83: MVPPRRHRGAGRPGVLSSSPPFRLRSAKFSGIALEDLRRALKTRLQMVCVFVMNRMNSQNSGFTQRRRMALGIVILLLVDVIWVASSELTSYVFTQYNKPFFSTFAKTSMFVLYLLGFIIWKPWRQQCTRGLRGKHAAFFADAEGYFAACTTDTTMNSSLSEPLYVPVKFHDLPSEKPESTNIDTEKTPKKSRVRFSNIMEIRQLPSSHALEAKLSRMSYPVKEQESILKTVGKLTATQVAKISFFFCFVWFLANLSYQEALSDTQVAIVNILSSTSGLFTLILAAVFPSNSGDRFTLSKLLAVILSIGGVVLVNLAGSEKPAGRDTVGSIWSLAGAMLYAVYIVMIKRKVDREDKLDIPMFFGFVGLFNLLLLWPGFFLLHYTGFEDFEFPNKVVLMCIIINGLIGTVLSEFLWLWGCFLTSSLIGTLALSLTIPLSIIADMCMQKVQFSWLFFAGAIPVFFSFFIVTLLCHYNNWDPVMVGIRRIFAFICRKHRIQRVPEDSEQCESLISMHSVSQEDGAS
UniProt Q6YBV0: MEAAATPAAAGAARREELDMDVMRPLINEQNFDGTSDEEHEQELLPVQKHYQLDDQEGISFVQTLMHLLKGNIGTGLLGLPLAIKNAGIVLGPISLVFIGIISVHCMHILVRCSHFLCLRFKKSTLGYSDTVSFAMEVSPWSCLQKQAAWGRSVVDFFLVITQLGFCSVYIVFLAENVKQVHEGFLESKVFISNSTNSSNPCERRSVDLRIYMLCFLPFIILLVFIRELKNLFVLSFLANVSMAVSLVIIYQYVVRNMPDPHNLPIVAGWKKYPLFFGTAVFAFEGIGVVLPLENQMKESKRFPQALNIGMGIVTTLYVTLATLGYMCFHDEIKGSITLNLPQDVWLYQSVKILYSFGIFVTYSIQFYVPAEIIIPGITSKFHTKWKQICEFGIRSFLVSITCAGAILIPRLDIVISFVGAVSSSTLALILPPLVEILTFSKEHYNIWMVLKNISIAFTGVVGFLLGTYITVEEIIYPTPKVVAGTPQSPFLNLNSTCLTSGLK
UniProt Q9HAB3: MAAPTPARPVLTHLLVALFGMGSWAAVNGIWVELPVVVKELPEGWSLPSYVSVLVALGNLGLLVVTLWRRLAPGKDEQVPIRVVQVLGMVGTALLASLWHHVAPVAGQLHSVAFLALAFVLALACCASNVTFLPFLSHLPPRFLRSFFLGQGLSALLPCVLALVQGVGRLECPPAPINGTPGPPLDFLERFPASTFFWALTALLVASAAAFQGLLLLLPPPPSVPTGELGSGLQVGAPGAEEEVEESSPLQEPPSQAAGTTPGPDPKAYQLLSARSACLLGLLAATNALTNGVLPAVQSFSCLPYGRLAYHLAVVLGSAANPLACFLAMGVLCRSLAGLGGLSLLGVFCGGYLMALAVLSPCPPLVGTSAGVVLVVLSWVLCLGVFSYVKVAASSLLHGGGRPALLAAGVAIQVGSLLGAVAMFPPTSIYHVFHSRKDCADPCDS
UniProt Q0GE19: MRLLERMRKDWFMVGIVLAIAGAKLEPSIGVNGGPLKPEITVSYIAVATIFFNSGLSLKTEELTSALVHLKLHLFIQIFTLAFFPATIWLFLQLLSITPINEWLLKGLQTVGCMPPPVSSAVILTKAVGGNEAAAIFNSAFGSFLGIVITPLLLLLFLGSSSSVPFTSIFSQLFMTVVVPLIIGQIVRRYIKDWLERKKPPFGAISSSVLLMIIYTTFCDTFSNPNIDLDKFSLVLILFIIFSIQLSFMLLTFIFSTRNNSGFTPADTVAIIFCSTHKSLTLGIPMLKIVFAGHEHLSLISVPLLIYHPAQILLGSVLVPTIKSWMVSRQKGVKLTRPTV
UniProt Q9Y2P4: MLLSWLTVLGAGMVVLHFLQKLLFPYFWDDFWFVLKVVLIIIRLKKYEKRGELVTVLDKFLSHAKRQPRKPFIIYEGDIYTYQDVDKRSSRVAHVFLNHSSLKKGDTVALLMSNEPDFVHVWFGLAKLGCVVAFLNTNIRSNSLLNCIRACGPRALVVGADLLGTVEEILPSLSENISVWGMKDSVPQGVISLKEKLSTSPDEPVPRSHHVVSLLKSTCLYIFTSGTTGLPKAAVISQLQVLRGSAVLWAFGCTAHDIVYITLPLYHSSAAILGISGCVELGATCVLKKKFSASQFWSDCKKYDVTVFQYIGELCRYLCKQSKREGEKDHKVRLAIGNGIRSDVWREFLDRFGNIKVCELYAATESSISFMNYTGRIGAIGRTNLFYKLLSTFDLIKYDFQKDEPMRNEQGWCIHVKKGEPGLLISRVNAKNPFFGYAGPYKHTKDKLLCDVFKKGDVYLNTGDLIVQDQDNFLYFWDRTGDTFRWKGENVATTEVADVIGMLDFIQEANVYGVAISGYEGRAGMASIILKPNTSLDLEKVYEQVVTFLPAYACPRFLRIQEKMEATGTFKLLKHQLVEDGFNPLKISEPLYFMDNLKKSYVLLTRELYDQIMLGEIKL
UniProt Q9C0K1: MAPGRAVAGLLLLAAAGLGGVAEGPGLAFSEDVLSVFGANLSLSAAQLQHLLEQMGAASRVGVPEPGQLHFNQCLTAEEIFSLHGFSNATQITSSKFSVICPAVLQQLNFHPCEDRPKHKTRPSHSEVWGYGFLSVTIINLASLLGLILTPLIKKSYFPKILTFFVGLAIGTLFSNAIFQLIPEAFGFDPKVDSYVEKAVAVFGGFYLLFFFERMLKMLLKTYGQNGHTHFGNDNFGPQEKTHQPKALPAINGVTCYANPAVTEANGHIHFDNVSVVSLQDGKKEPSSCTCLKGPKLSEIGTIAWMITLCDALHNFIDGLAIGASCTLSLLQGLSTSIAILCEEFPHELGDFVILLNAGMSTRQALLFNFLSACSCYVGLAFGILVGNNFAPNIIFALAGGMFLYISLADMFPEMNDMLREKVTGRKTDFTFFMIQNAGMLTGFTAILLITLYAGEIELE
UniProt P48751: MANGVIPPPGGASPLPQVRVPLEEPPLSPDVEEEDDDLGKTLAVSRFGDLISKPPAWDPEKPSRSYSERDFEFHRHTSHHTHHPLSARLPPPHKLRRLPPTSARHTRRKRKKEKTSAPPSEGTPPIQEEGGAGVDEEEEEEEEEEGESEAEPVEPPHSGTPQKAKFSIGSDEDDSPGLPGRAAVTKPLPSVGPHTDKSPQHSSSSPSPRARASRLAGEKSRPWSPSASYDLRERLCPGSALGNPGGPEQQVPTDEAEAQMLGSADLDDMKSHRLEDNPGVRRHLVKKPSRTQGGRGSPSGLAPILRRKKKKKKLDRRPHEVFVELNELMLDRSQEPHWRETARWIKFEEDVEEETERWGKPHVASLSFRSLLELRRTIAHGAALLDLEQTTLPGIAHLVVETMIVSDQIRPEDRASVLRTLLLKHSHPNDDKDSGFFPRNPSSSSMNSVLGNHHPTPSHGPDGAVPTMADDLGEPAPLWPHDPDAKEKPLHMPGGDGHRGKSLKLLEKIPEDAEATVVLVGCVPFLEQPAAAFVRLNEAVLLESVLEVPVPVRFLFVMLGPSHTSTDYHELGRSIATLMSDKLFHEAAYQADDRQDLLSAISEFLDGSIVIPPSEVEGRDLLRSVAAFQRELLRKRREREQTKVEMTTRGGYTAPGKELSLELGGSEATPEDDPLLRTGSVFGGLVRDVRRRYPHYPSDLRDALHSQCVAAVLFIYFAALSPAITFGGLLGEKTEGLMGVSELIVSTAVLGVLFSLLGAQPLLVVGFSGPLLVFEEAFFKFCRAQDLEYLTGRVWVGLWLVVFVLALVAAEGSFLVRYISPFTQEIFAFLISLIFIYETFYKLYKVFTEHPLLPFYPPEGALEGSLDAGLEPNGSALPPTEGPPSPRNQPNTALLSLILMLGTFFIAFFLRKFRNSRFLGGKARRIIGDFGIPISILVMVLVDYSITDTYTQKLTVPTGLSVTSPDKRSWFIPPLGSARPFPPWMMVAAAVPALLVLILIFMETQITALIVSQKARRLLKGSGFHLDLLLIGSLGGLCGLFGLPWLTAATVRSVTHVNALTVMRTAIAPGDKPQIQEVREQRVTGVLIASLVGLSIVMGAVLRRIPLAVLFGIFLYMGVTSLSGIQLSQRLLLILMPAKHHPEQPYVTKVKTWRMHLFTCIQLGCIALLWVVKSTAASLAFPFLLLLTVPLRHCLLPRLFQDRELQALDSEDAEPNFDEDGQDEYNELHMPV

compound: C1COCCN1CCN2C3=CC=CC=C3N=C2NC(=O)C4=CC(=CC=C4)[N+](=O)[O-] [IRAK-1-4 Inhibitor I]; assay: log2 fold change, soluble protein after heating vs DMSO (PISA); higher = thermal stabilisation; K562 cells, 10 uM, 30 min; active = over 0.2 and 3.5 SD of the protein, either way, in both replicates (recomputed)
Method in brief: (§1)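 Values are thermal stability changes relative to control samples and are taken from duplicates. They are stated as log2 fold changes. Before quantification by TMTpro 16plex LC-MS/MS with equalised channel sums, K562 cells at 2×10^6 cells/mL were treated with 10 μM compound for 30 min, heated in aliquots for 3 min across 48°C-58°C, pooled, extracted in PBS with 0.5% NP-40 at 4°C, and centrifuged at 21,000xg for 90 min to give the soluble supernatant.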

log2 fold change, inactive:
SLC23A2 (UniProt Q9UGH3) 0.157
SLC25A30 (UniProt Q5SVS4) 0.25
SLC22A23 (UniProt A1A5C7) -0.005
SLC17A5 (UniProt Q9NRA2) -0.039
SLC25A29 (UniProt Q8N8R3) 0.003
SLC26A2 (UniProt P50443) -0.072
SLC19A2 (UniProt O60779) 0.098
SLC25A35 (UniProt Q3KQZ1) 0.028
SLC41A1 (UniProt Q8IVJ1) -0.189
SLC36A1 (UniProt Q7Z2H8) -0.005
SLC35F5 (UniProt Q8WV83) 0.143

compound: C=CC(=O)N1CCC[C@@H](n2nc(-c3ccc(Oc4ccccc4)cc3)c3c(N)ncnc32)C1 [ibrutinib]; assay: as above
Method in brief: as §1

log2 fold change, inactive:
SLC25A28 (UniProt Q96A46) -0.051
SLC36A4 (UniProt Q6YBV0) 0.01
SLC52A2 (UniProt Q9HAB3) 0.052
SLC23A2 (UniProt Q9UGH3) -0.336
SLC2A13 (UniProt Q96QE2) -0.231
SLC35F6 (UniProt Q8N357) -0.002
SLC66A1 (UniProt Q6ZP29) 0.227
SLC10A7 isoform 1 (UniProt Q0GE19) 0.055
SLC66A2 (UniProt Q8N2U9) 0.02
SLC27A6 (UniProt Q9Y2P4) 0.039
SLC39A8 (UniProt Q9C0K1) 0.001
SLC2A4 (UniProt P14672) 0.204
SLC39A3 (UniProt Q9BRY0) -0.055
SLC10A3 (UniProt P09131) -0.212
SLC36A1 (UniProt E5RG64) 0.309
SLC1A3 (UniProt P43003) 0.168
SLC3A2 (UniProt F5H867) -0.031
SLC4A3 isoform 3 (UniProt P48751) -0.13
SLC26A11 (UniProt I3L0N9) -0.12
SLC35F5 (UniProt Q8WV83) -0.408
